Each substance was assayed on brain (assay: In vivo panning of phage peptide display libraries, brain as the selected organ, kidney as control organ). Details: phage recovered from brain; 73 cloned phage sequenced.
Set-up: species or system mice
In the case of “CANAQSHC (displayed on phage) [peptide from phage recovered from brain]”, the “% PHAGE (of the clones sequenced)” value is reported as “(1.4%)”.
“CETLPAC (displayed on phage) [peptide from phage recovered from brain]” was tested, and the “% PHAGE (of the clones sequenced)” value was “(1.4%)”.
“CGNPSYRC (displayed on phage) [peptide from phage recovered from brain]” was tested, and the “% PHAGE (of the clones sequenced)” value was “(1.4%)”.
“CGRSLDAC (displayed on phage) [peptide from phage recovered from brain]” was tested, and the “% PHAGE (of the clones sequenced)” value was “(1.4%)”.
In the case of “CGVRLGC (displayed on phage) [peptide from phage recovered from brain]”, the “% PHAGE (of the clones sequenced)” value is reported as “(4.1%)”.
“CKDWGRIC (displayed on phage) [peptide from phage recovered from brain]” was tested, and the “% PHAGE (of the clones sequenced)” value was “(2.8%)”.
“CLDWGRIC (displayed on phage) [peptide from phage recovered from brain]” was tested, and the “% PHAGE (of the clones sequenced)” value was “(2.8%)”.
With CLSSRLDAC (cyclic) the “% PHAGE (of the clones sequenced)” value was “(8.2%)”.
For CNSRLHLRC (displayed on phage), the “% PHAGE (of the clones sequenced)” value was “(21.9%)”.
In the case of “CNSRLQLRC (displayed on phage) [peptide from phage recovered from brain]”, the “% PHAGE (of the clones sequenced)” value is reported as “(5.5%)”.
With “CRHWFDVVC (displayed on phage) [peptide from phage recovered from brain]” the “% PHAGE (of the clones sequenced)” value was “(1.4%)”.
For “CRTGTLFC (displayed on phage) [peptide from phage recovered from brain]”, the “% PHAGE (of the clones sequenced)” value was “(1.4%)”.
In the case of “CTRITESC (displayed on phage) [peptide from phage recovered from brain]”, the “% PHAGE (of the clones sequenced)” value is reported as “(2.8%)”.
“CVLRGGRC (displayed on phage) [peptide from phage recovered from brain]” was tested, and the “% PHAGE (of the clones sequenced)” value was “(6.8%)”.
With “LNCDYQGTNPATSVSVPCTV (displayed on phage) [peptide from phage recovered from brain]” the “% PHAGE (of the clones sequenced)” value was “(1.4%)”.
“WRCVLREGPAGGCAWFNRHRL (displayed on phage)” was tested, and the “% PHAGE (of the clones sequenced)” value was “(13.7%)”.
For “YPCGGEAVAGVSSVRTMCSE (displayed on phage) [peptide from phage recovered from brain]”, the “% PHAGE (of the clones sequenced)” value was “(1.4%)”.
